Screening data, single-dose tests

The values are deposited in ChEMBL (CHEMBL3988442, “University of Dundee, Small-Polar-MMV Screening Library” (2021)).

Mtb cholesterol medium: 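Phenotypic screen: M. tuberculosis growth, cholesterol and DPPC medium, 4 days; the read-out is not stated. Concentration: 50 µM. The record gives no direction; compounds that gave an IC50 in retests scored well above the rest, so higher reads as more growth inhibition. Of about 69,000 compounds tested this way, about 370 (0.54%) reached 50% or more in at least one test.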
Mtb glucose medium: 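Whole-cell growth test on Mycobacterium tuberculosis, read after 3 days in glucose-containing 7H9 medium; the read-out is not stated. Concentration: 50 µM. Direction is inferred from retests: higher values go with more growth inhibition. Of about 69,000 compounds tested this way, about 760 (1.1%) reached 50% or more in at least one test.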

Values are the deposited “Percent Effect”, in %.
The record does not define 0% and 100%; most values in the screen are far below 50% and negative numbers occur (in some assays of this library far below -100).
This is an unselected part of the compounds tested.
Two or more numbers in one place are separate tests of the same structure; such repeats can differ widely.

{"smiles": "O=C(NCCCSC1CCCCC1)C1NCCc2[nH]cnc21", "stereo": "stereo not given", "Mtb cholesterol medium": 10.43, "Mtb glucose medium": 12.36}
{"smiles": "O=C(c1cccc(-n2cnnn2)c1)N1CCC2(CC1)OCCO2", "Mtb cholesterol medium": 23.65, "Mtb glucose medium": 13.73}
{"smiles": "NCc1cnn(-c2ccccc2C(=O)NCCc2ccccn2)c1", "Mtb cholesterol medium": -7.452, "Mtb glucose medium": 20.59}
{"smiles": "O=S(=O)(Cc1ccccc1F)N1CCCC1c1nnc2n1CCCCC2", "stereo": "stereo not given", "Mtb cholesterol medium": 2.066, "Mtb glucose medium": 23.43}
{"smiles": "O=C(NCCc1ccccc1)c1cccc(S(=O)(=O)NC2CCOC2)c1", "stereo": "stereo not given", "Mtb cholesterol medium": 7.682, "Mtb glucose medium": 1.508}
{"smiles": "COc1ccc2c(c1)C(C(=O)N(C)CCCc1nccn1C)CC(=O)N2", "stereo": "stereo not given", "Mtb cholesterol medium": -5.813, "Mtb glucose medium": -4.297}
{"smiles": "CC(C)n1cnnc1CN(C)C(=O)c1cnn2ccccc12", "Mtb cholesterol medium": -6.863, "Mtb glucose medium": -1.787}
{"smiles": "[H][C@@]12COC[C@]1([H])[C@H](OCc1csc(C)n1)CN2Cc1ccco1", "Mtb cholesterol medium": 1.187, "Mtb glucose medium": -10.31}
{"smiles": "CN(Cc1ccc(F)cc1)C(=O)Nc1cccnc1N1CCCC1", "Mtb cholesterol medium": -1.592, "Mtb glucose medium": 21.8}
{"smiles": "c1cc(CNCc2ccnc(N3CCOCC3)c2)c2c(c1)OCCCO2", "Mtb cholesterol medium": -20.51, "Mtb glucose medium": -9.476}
{"smiles": "O=C(O)C(F)(F)F.[H][C@@]12CCN(c3ccc(C)nn3)C[C@]1(C(=O)NC(C)C)CCO2", "Mtb cholesterol medium": "9.619 & -2.63", "Mtb glucose medium": 1.149}
{"smiles": "CN(C)C(=O)C1(C)CN(Cc2cn(C)c3ccc(F)cc23)CCO1", "stereo": "stereo not given", "Mtb cholesterol medium": -22.66, "Mtb glucose medium": -22.45}
{"smiles": "COc1ccccc1OC1(C(=O)O)CCN(c2ncccc2F)CC1", "Mtb cholesterol medium": 3.507, "Mtb glucose medium": -18.48}
{"smiles": "Cc1nc(C(C)(C)NC(=O)Nc2ccccc2)no1", "Mtb cholesterol medium": -20.74, "Mtb glucose medium": "-10.07 & -22.31"}
{"smiles": "CC(C)(C)c1noc(CN2CCCc3cc(OC(F)(F)F)ccc32)n1", "Mtb cholesterol medium": -12.15, "Mtb glucose medium": 15.66}
{"smiles": "Cn1cccc1CN1CCC2(CC1)CC(Oc1cccnc1)C2.O=C(O)C(F)(F)F.O=C(O)C(F)(F)F", "Mtb cholesterol medium": 2.421, "Mtb glucose medium": "-15.42 & 0.252"}
{"smiles": "CN1CCCCC1c1nc(Cc2cccc(F)c2)no1", "stereo": "stereo not given", "Mtb cholesterol medium": 4.849, "Mtb glucose medium": "27.29 & 12.23"}
{"smiles": "Cc1cc(NC(=O)CN(c2ccccc2)C(C)C)on1", "Mtb cholesterol medium": -16.16, "Mtb glucose medium": 16.43}
{"smiles": "CN(C)Cc1cnc2n1CCN(Cc1ccsc1)CC2.O=C(O)C(F)(F)F.O=C(O)C(F)(F)F", "Mtb cholesterol medium": -0.3217, "Mtb glucose medium": 5.21}
{"smiles": "Cc1c(CN2CCCC2c2cncc(CN3CCCC3)n2)cnn1C", "stereo": "stereo not given", "Mtb cholesterol medium": "5.56 & -0.7588", "Mtb glucose medium": 6.244}
{"smiles": "Nc1ncccc1C(=O)NCc1ccc(Br)cc1", "Mtb cholesterol medium": -18.05, "Mtb glucose medium": 9.108}
{"smiles": "O=C1CCCCN1CCc1nc(C2(c3ccc(F)cc3)CCOC2)no1", "stereo": "stereo not given", "Mtb cholesterol medium": -33.37, "Mtb glucose medium": -40.01}
{"smiles": "COc1ccc(COCC(=O)N2CCN(CC(C)(C)O)CC2)cc1", "Mtb cholesterol medium": -11.47, "Mtb glucose medium": 28.24}
{"smiles": "COc1cccc(CC2(C(=O)O)CCN(c3nccs3)CC2)c1", "Mtb cholesterol medium": 2.643, "Mtb glucose medium": -17.53}
{"smiles": "CCOC(=O)N1CCC2(CC1)N=C(CCC(C)C)NC2=O", "Mtb cholesterol medium": "34.57 & 5.124", "Mtb glucose medium": 27.14}
{"smiles": "CCc1ccc(CN2CCC(c3ccccc3C(=O)O)C2)nc1", "stereo": "stereo not given", "Mtb cholesterol medium": -3.103, "Mtb glucose medium": -14.61}
{"smiles": "COc1cc(N2CCC3(CC(=O)N(Cc4csc(C)n4)C3)C2)ncn1", "stereo": "stereo not given", "Mtb cholesterol medium": -28.79, "Mtb glucose medium": -41.33}
{"smiles": "CC(C)NC(=O)c1cc2c(c3ccccc3n2C)n1C(=O)N(C)C", "Mtb cholesterol medium": -11.29, "Mtb glucose medium": -10.64}

The last 3 entries again:

CCc1ccc(CN2CCC(c3ccccc3C(=O)O)C2)nc1 (stereo not given) gave Mtb cholesterol medium: -3.103%; Mtb glucose medium: -14.61%.
COc1cc(N2CCC3(CC(=O)N(Cc4csc(C)n4)C3)C2)ncn1 (stereo not given) gave Mtb cholesterol medium: -28.79%; Mtb glucose medium: -41.33%.
CC(C)NC(=O)c1cc2c(c3ccccc3n2C)n1C(=O)N(C)C gave Mtb cholesterol medium: -11.29%; Mtb glucose medium: -10.64%.